The filed quantity is “Percent Effect” (%). The controls that fix the scale are not given in the record; negative values are as filed. This is an unselected part of the compounds tested.

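Assay of Toxoplasma gondii numbers, read through their beta-galactosidase reporter with a colour substrate. Compounds at 50 µM. Higher reads as fewer parasites (inferred from which compounds were picked for retests). About 18,000 compounds were tested under these conditions; 0.94% (about 170) showed 50% or more at least once.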

| structure | Percent Effect |
|---|---|
| `COc1ccc(NC(=O)N2CC=C(C)CC2)c(OC)n1` | 2.221% |
| `CCOC1CCCN(CCC(=O)NC)C1` (stereo not shown) | -7.178% |
| `CC(C)(O)CNCc1ccccc1` | -16.93% |
| `CC(=O)N1CCN(C(=O)c2cncnc2C)CC(O)C1` (stereo not shown) | 6.663% |
| `CCOC(=O)CC1(N2CCOCC2)CCCC1` | -13.98% |
| `CN(C)C(=O)COC(=O)c1ccc2ccccc2n1` | -6.636% |
| `CCn1cc(Cl)c(CN)n1` | -13.17% |
| `CCN1CCN(Cc2ccc3c(c2)OCO3)CC1` | -23.28% |
| `COC(=O)c1ccccc1NC(=O)c1csnn1` | -7.682% |
| `Cc1cnn(CC2CCNCC2)c1` | 21.58% |
| `Cc1cccc(N2CCC(N(C)CCCO)CC2)n1` | 2.048% |
| `CN1CCCCC1C(=O)NCCCc1ccco1` (stereo not shown) | 9.912% |
| `O=C1NCCN1CC1CCCN1` (stereo not shown) | 4.06% |
| `O=C1CNc2ccncc2N1` | 33.34% |
| `NC(=O)c1cc(N2CCOCC2)nc2ccc(F)cc12` | -5.816% |
| `Cn1cc(CNCCNC(=O)c2cccs2)cn1` | -8.28% |
| `CN(Cc1cc(Cl)cn1C)C(=O)c1cc(O)cc(O)c1` | -8.472% |
| `COc1ccc(S(=O)(=O)N2CC(NCC3CC3)C2)cc1` | -1.711% |
| `O=C(C1CCC1)N1CCCC1c1cccnc1` (stereo not shown) | 6.798% |
| `CC1(C(=O)NCCOCc2ccccc2)CCCCN1` (stereo not shown) | 13.38% |
| `Cc1cc(C(=O)N(C)C(C)c2ccncc2)cc(=O)[nH]1` (stereo not shown) | -19.03% |
| `O=S1(=O)CCNCCC12CCC2` | 1.66% |
| `CC1COc2ccccc2N1CC(N)=O` (stereo not shown) | -5.521% |
| `OC1(CNCc2nnc3ccccn23)CNCCOC1` (stereo not shown) | -0.7898% |
| `CCN1CC(CN)OC1=O` (stereo not shown) | 3.638% |
| `CC(C)(C)n1ncn(CCOC2CCCCO2)c1=O` (stereo not shown) | 0.3877% |
| `CN(C)C(CNC(=O)CN1CCCC1=O)c1ccco1` (stereo not shown) | 5.326% |
| `NC(=O)CO[C@H]1CCOC[C@H]1NC(=O)c1cc(Cl)c[nH]1` | 3.404% |
| `Cn1nc(C(N)=O)c2ccccc21` | -61.48% |
| `CC(C)CS(=O)(=O)CCNC(=O)c1ccon1` | -3.538% |
| `Nc1nc(NCCc2ncc[nH]2)cc([C@H]2C[C@@H](N)C2)n1` | -20.23% |
| `O=C(NCCNC(=O)c1ccccc1)Nc1nncs1` | 11.13% |
| `CCS(=O)(=O)Nc1ccc(CN)cc1` | -0.08594% |
| `Cc1c(C(=O)NCc2nnc3ccccn23)cnn1C` | -8.129% |
| `Cc1noc(C)c1CN1CCC(NC(=O)C2CC2)CC1` | 12.19% |
| `Cc1n[nH]c(C)c1CN(C)Cc1ccncc1` | -1.695% |
| `O=C(C1CCCN(C2CCNCC2)C1)N1CCOCC1` (stereo not shown) | -11.57% |
| `CCCn1ccnc1CN1CCC(C(=O)NC)C1` (stereo not shown) | -7.093% |
| `O=C(Nc1nc(C2CC2)cs1)C1CNCCO1` (stereo not shown) | -11.83% |
| `COc1ccc(C(=O)N2CCC(=O)CC2)cc1Br` | -16.44% |
| `CN1Cc2cc(O)ccc2C1=O` | 4.771% |
| `CNCc1n[nH]c(=O)n1-c1ccc(Cl)cc1C` | -8.063% |
| `COCCNC(=O)CNS(=O)(=O)c1ccc(Br)c(C)c1` | 4.755% |
| `CNC(=O)COC(=O)c1ccc(OC(F)(F)F)cc1` | 2.901% |
| `Cn1cc(C(=O)NC2CC(C)(C)OC2(C)C)cn1` (stereo not shown) | 6.396% |
| `CN1CCCN(C(=O)c2ccc(N(C)C)cc2F)CC1` | -3.403% |
| `NC1(C(=O)N2CCC3(CC2)NCCc2nc[nH]c23)CC1` | -3.971% |
| `Cc1cc(NC(=O)NC[C@@H]2C[C@H](F)CN2)n(C(C)C)n1` | 4.121% |
| `CN1CCN(C(=O)CSc2ncccn2)CC1` | -3.489% |
| `CCOCCC(=O)N1CCC2(CC1)C(=O)NCCN2C` | 1.028% |
| `O=C1NCCNC1CC1CCCCC1` (stereo not shown) | -7.19% |
| `Cc1ccc(S(=O)(=O)NCCOC(N)=O)c(Br)c1` | -8.606% |
| `O=C1CCN(C(=O)c2sccc2Br)CCN1` | -11.17% |
| `Cn1cc(C(=O)Nc2ccc(-n3cncn3)nc2)cn1` | 5.314% |
| `CC(C)c1cc(N)n(C(C)C)n1` | -9.687% |
| `CC(c1ccccn1)N(C)CC(=O)NCC(F)(F)F` (stereo not shown) | 0.5503% |
| `CCC1c2nccn2CCCN1C(=O)c1ocnc1C` (stereo not shown) | 14.31% |
| `CC(N)c1nc2ccccc2n1C` (stereo not shown) | -0.3404% |
| `Cc1cccc(CCC(=O)N2CCNCC2)c1` | 7.04% |
| `CC(C)N(CC(N)=O)Cc1ccc(S(=O)(=O)N(C)C)o1` | 0.5228% |
| `CCN1CCCN(CC(=O)NCC2CCCO2)CC1` (stereo not shown) | -8.965% |
| `CNC(COC)Cc1ccccc1` (stereo not shown) | 1.553% |
| `CC(C)C(=O)NCCNC(=O)C(C)(C)C` | -14.47% |
| `Cc1nc(C(=O)N2C[C@@H](CO)[C@H](N(C)C)C2)co1` | 39.87% |
| `O=C1CN(Cc2ccccc2)CC(=O)N1` | 2.32% |
| `CC(=O)NCCNCc1ccc(Br)s1` | -18.29% |
| `NCCc1ncc(-c2ccccc2)[nH]1` | -7.795% |
| `CN1CCN(C2CCN(C(=O)Cc3ccsc3)C2)CC1` (stereo not shown) | -18.24% |
| `Cc1c[nH]c(C(=O)N2CC[C@@](O)(C3CCC3)[C@H](C)C2)n1` | -8.12% |
| `Cc1nnc(CNC(=O)c2ccc(NC3CC3)nc2)o1` | -12.21% |
| `COc1cccc(C(O)c2nccn2C)c1` (stereo not shown) | -29.51% |
| `CCS(=O)(=O)N(C)CC(=O)N1CC2(CCC2)CC1C` (stereo not shown) | -11.64% |
| `COC(=O)CCCNc1ccc2c(c1)OCCO2` | -9.289% |
| `NCC1(O)CCCc2ccccc21` (stereo not shown) | -0.5626% |
| `NC1CC(=O)N(CCc2ccccc2)C1` (stereo not shown) | 6.829% |

Measurements from “University of Dundee, Small-Polar-MMV Screening Library” (2021), ChEMBL document CHEMBL3988442.